Results are given in words; binding and its absence hold for the method and conditions named. Binding seen in cells or lysates may run through a third protein. Some entries that bind do so weakly or less than the wild type.
Legend:
[1] = target: Kelch-like ECH-related protein 1 (Keap1) (mouse (endogenous in primary mouse hepatocytes)) (UniProt Q9Z2X8); assay: co-IP; primary mouse hepatocytes treated with FFA and/or Elane, or hepatocytes from Elane+/+ and Elane-/- mice after modelling; NP-40 lysis buffer with protease inhibitors; Keap1 or P62 antibody or control IgG overnight at 4 °C, protein A/G beads 3 h at 4 °C; Western blotting
[2] = target: P62 (mouse (endogenous in primary mouse hepatocytes)) (UniProt Q64337); assay: as above

Protein sequences, listed by entry. Tags and fused reporters are not part of them.
UniProt Q9Z2X8: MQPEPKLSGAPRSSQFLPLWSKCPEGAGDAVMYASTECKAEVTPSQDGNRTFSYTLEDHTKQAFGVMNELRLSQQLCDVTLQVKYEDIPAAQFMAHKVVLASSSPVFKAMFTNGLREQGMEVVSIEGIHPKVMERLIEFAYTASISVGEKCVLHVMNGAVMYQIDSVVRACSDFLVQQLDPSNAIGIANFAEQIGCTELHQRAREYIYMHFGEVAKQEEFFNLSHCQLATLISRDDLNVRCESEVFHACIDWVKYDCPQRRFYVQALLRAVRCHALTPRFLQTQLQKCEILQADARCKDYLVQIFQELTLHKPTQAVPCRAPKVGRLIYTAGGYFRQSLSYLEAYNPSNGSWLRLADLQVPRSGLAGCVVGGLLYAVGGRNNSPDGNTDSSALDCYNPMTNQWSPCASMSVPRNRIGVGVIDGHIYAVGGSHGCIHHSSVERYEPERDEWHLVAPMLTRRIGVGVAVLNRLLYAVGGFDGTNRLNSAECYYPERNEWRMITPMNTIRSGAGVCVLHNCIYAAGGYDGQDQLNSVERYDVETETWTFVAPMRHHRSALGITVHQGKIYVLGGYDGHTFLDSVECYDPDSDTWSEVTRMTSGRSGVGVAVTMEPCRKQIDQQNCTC

B1: Active neutrophil elastase (Elane) (enzyme, UniProt Q3UP87 27-265)
chain: SEIVGGRPARPHAWPFMASLQRRGGHFCGATLIARNFVMSAAHCVNGLNFRSVQVVLGAHDLRRQERTRQTFSVQRIFENGFDPSQLLNDIVIIQLNGSATINANVQVAQLPAQGQGVGDRTPCLAMGWGRLGTNRPSPSVLQELNVTVVTNMCRRRVNVCTLVPRRQAGICFGDSGGPLVCNNLVQGIDSFIRGGCGSGLYPDAFAPVAEFADWINSIIRSHNDHLLTHPKDREGRTN
With B1 the binding [1] was “binds” and the binding [2] was “binds”.

Source: paper PMC11982220
